The whole screen tested about 320,000 compounds, of which about 22,000 (6.9%) were called active. Inconclusive means that the source gave no clear call. Such entries were picked first, then a sample of the others. The call rests on the fitted dose curve; in most records, active means well fitted inhibition curve with a large enough effect; inconclusive means small, poorly fitted or top-dose-only effect, or another doubt; inactive means no such curve, though single readings can be large or run the other way. Where the call is inconclusive, the potency comes from a doubtful curve fit.
Experiment: Primary qHTS for delayed death inhibitors of the malarial parasite plastid, 96 hour incubation
Conditions: P. falciparum luciferase reporter growth; series mostly up to 28.7 µM
In short: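 Delayed-death screen, second-generation endpoint: infected erythrocytes, 2% hematocrit, 0.05% parasitemia final; 96 hours at 37 C, 5% CO2; luciferase detection reagent; luminescence decrease equals reduced growth.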
Potency means the concentration at half of the fitted maximal effect.

SMILES | Potency
COCCCNC(=O)C1CCN(C(=O)c2oc3cc4sc(N(C)C)nc4cc3c2C)CC1 | inconclusive: 0.0047 µM [inhibitor, full curve, poor fit]
CC(=O)OCC1OC(OCc2cn(C[C@H]3CC[C@H](Cn4cc(COC5OC(COC(C)=O)C(OC(C)=O)C(OC(C)=O)C5OC(C)=O)nn4)O3)nn2)C(OC(C)=O)C(OC(C)=O)C1OC(C)=O (some centres not stated) | inconclusive: 0.104 µM [inhibitor, full curve, poor fit]
CC1Sc2ccc(S(=O)(=O)N3CCC(C(=O)N(C)Cc4ccccc4)CC3)cc2NC1=O (configuration not stated) | active: 5.86 µM
COC(=O)c1c(NC(=S)NN2CCN(C)CC2)sc2c1CCC(C)C2 (configuration not stated) | inconclusive: 11.7 µM [inhibitor, partial curve, poor fit]
CC(=O)Nc1ccc(NC(=O)C(C)OC(=O)c2ccc(C)s2)cc1 (configuration not stated) | inactive
Cn1c(SCc2c(F)cccc2Cl)nnc1-c1cnccn1 | inconclusive: 0.0033 µM [inhibitor, full curve, poor fit]
Cn1c(=O)oc2cc(S(=O)(=O)NCCC(=O)NC3CCCc4ccccc43)ccc21 (configuration not stated) | inactive
CCCOC(=O)CSc1nnc(-c2ccccc2Cl)o1 | inconclusive: 8.28 µM [inhibitor, partial curve, poor fit]
COc1ccc(CCNC(=O)c2nn(C)c3c2CS(=O)(=O)c2ccccc2-3)c(OC)c1 | inconclusive: 0.0657 µM [inhibitor, full curve, poor fit]
O=C1C(=O)c2ccccc2C([O-])=C1[n+]1ccccc1 | active: 7.38 µM
CCc1nnc(NC(=O)CSc2nnc(C3CCCCC3)n2-c2ccccc2)s1 | inactive
COc1ccc(C(=O)N2CC3(CC(c4cccc(NC(=O)COc5ccc(Cl)cc5)c4)=NO3)C[C@@H]2C(N)=O)cc1 (some centres not stated) | active: 11.7 µM
Cc1ccc(CNC(=O)CCC(=O)Nc2nnc(C(C)C)s2)cc1 | inactive
O=C(O)CCn1cc(C(=O)O)c(-c2ccccc2)n1 | inactive
C=CCNC(=O)c1c[nH]c2ccc(S(=O)(=O)N(C)c3ccc(OCC)cc3)cc2c1=O | inactive
CC(Sc1nc2ccccc2s1)C(=O)N(C)Cc1ccccc1 (configuration not stated) | inconclusive: 18.5 µM [inhibitor, single point]
CC1Cc2cc(/C(O)=C3/C(=O)C(=O)N(CCCn4ccnc4)C3c3ccc(Br)cc3)ccc2O1 (configuration not stated) | inactive
COC(=O)c1ccccc1NC(=O)Nc1c(C)n(C)n(-c2ccccc2)c1=O | inactive
COc1ccc(CCN(C)C(=O)c2cnc(C)cn2)cc1OC | inactive
O=C1CC(C(=O)N2CCCc3ccccc32)CN1c1ccc(F)cc1 (configuration not stated) | inconclusive: 16.5 µM [inhibitor, single point]
CC1(C)CC(=O)C(C=Nc2ccc(C(=O)c3ccccc3)cc2N=CC2=C(O)CC(C)(C)CC2=O)=C(O)C1 | inactive
Cc1ccc(C(=O)Nc2ccc(CN3CCCCC3)cc2)c(C)c1 | inactive
C=CCNC(=O)c1ccc2c(c1)N(CC)C(=O)c1ccccc1S2 | inactive
COc1ccc(CNC(=O)COc2cc3c(c4oc(=O)cc(C)c24)CCC(C)(C)O3)cc1 | active: 8.28 µM

SMILES | Potency
COc1ccc(CN/C(C)=C(/C#N)C(N)=O)cc1OC | inactive
COc1ccccc1NC(=O)COC(=O)c1cc2ccccc2cc1O | inactive
COC(=O)c1c(NC(=O)C2CCCCC2)sc2c1CCN(C(C)C)C2 | inconclusive: 18.5 µM [inhibitor, single point]
Cc1ccc(-c2csc(N3CCC(C(N)=O)(N4CCCCC4)CC3)n2)cc1 | inactive
CCOc1ccc(NC(=O)CCCN2C(=S)NC(C)(C)CC2C)cc1 (configuration not stated) | inconclusive: 8.28 µM [inhibitor, partial curve, poor fit]
Cc1ccc(N(C)C(=O)CCS(=O)(=O)c2cc3c(cc2Cl)NC(=O)CO3)cc1 | inactive
CCc1cc2c(COC(=O)CCNS(=O)(=O)c3cccc(C(F)(F)F)c3)cc(=O)oc2cc1O | inconclusive: 11.7 µM [inhibitor, single point]
CSc1ccccc1NC(=O)C1CCN(S(C)(=O)=O)CC1 | inconclusive: 0.522 µM [inhibitor, full curve, poor fit]
CCOc1ccc(S(=O)(=O)Nc2cccc(C(=O)NCCCN3CCOCC3)c2)cc1 | inconclusive: 18.5 µM [inhibitor, single point]
CCCCN(c1ccc(C(=O)OC)cc1)S(=O)(=O)c1ccccc1 | inconclusive: 0.586 µM [inhibitor, partial curve, poor fit]
CCOC(=O)Cn1cnc2scc(-c3ccccc3)c2c1=O | inconclusive: 14.7 µM [inhibitor, partial curve]
CC1(OC(=O)CCc2ccccc2)C(=O)C=C2C=C(c3ccc(C#N)cc3)N(C3CCCC3)C=C2C1=O (configuration not stated) | inconclusive: 0.522 µM [inhibitor, full curve, poor fit]
Cc1c(NC(=O)C(C)OC(=O)CC2Sc3ccccc3NC2=O)c(=O)n(-c2ccccc2)n1C (configuration not stated) | inconclusive: 4.15 µM [inhibitor, full curve]
CC(=O)N(c1ccccc1C)S(=O)(=O)c1ccc(Cl)cc1 | inactive
O=C(NC(=S)N1CCN(Cc2ccccc2)CC1)c1ccco1 | inconclusive: 13.1 µM [inhibitor, single point]
Oc1c(Br)cccc1/C=N/c1ncn[nH]1 | inconclusive: 4.15 µM [inhibitor, single point]
CN(CCCC1CCCC1)C(=O)CC1C(=O)NCCN1Cc1cccc(F)c1F (configuration not stated) | inconclusive: 9.28 µM [inhibitor, partial curve, poor fit]
Cn1cccc1C(=O)NNC(=O)COc1ccccc1Cl | inactive
Cn1c(SCc2cccc(F)c2)nnc1-c1cnccn1 | inactive
C=C1c2cc3c(cc2NC(=S)N1Cc1ccccc1)OCO3 | inconclusive: 6.57 µM [inhibitor, partial curve, poor fit]
C=CCNC(=S)NNc1nc(N2CCCC2)nc(N2CCCC2)n1 | inconclusive: 9.28 µM [inhibitor, single point]
Cc1cc(=O)[nH]c(N/N=C/C=C/c2ccccc2)n1 | inconclusive: 18.5 µM [inhibitor, single point]
Cc1ccc(-n2c(/C=C/c3ccc4c(c3)OCO4)nc3ccccc3c2=O)cc1 | inconclusive: 18.5 µM [inhibitor, single point]
CC1=Nc2cc(C(=O)NCCN3CCOCC3)ccc2Sc2c(C)ccc(C)c21 | active: 11.7 µM

Grouped by structure: the entries above with a Cl atom
SMILES | Potency
Cn1c(SCc2c(F)cccc2Cl)nnc1-c1cnccn1 | inconclusive: 0.0033 µM [inhibitor, full curve, poor fit]
CCCOC(=O)CSc1nnc(-c2ccccc2Cl)o1 | inconclusive: 8.28 µM [inhibitor, partial curve, poor fit]
COc1ccc(C(=O)N2CC3(CC(c4cccc(NC(=O)COc5ccc(Cl)cc5)c4)=NO3)C[C@@H]2C(N)=O)cc1 (some centres not stated) | active: 11.7 µM
Cc1ccc(N(C)C(=O)CCS(=O)(=O)c2cc3c(cc2Cl)NC(=O)CO3)cc1 | inactive
CC(=O)N(c1ccccc1C)S(=O)(=O)c1ccc(Cl)cc1 | inactive
Cn1cccc1C(=O)NNC(=O)COc1ccccc1Cl | inactive

Structures above that have a cyano group (two):
SMILES | Potency
COc1ccc(CN/C(C)=C(/C#N)C(N)=O)cc1OC | inactive
CC1(OC(=O)CCc2ccccc2)C(=O)C=C2C=C(c3ccc(C#N)cc3)N(C3CCCC3)C=C2C1=O (configuration not stated) | inconclusive: 0.522 µM [inhibitor, full curve, poor fit]

Going on with the list.

SMILES | Potency
Cc1cccc(C(=O)NCC(C)NC(=O)c2cccc(C)c2)c1 (configuration not stated) | inconclusive: 4.65 µM [inhibitor, partial curve, poor fit]
Cc1nsc(Nc2ccccc2)c1C#N | inconclusive: 9.28 µM [inhibitor, partial curve, poor fit]
O=NN1CCCCC1 | inconclusive: 16.5 µM [inhibitor, single point]
CCCCCc1ccc(-c2cn(CC3CCCCC3)nn2)cc1 | active: 11.7 µM
O=C(OCC(=O)N1CCN(C(=O)c2ccco2)CC1)c1ccccc1NCCO | inconclusive: 18.5 µM [inhibitor, single point]
COC(=O)Cn1cc(C(=O)c2cccs2)c2ccccc21 | inconclusive: 18.5 µM [inhibitor, single point]
COc1ccccc1NC(=O)/C(=C/c1cccc([N+](=O)[O-])c1)c1ccccc1 | inactive
COc1cc(S(=O)(=O)N2CCN(C(=O)c3ccco3)CC2)ccc1Cl | inconclusive: 16.5 µM [inhibitor, single point]
Cc1cc(=O)oc2cc(OCCC[n+]3ccccc3)ccc12 | active: 4.65 µM
O=C(C1COc2ccccc2O1)N1CCCC1 (configuration not stated) | inconclusive: 0.0657 µM [inhibitor, full curve, poor fit]
COc1ccc(CCN)cc1OC | inconclusive: 4.15 µM [inhibitor, full curve, poor fit]
CCCC/C(O)=C1\C(=O)CCCC1=NCCc1c(C)[nH]c2ccc(OC)cc12 | inactive
Cc1ccc(-c2nc(CS(=O)(=O)CC(=O)NCCN3CCCC3)c(C)o2)cc1 | inactive
CCc1ccc(C(=O)Cc2cc3cccc(OC)c3oc2=O)cc1 | inactive
Cc1ccccc1-c1noc(CNC(=O)c2ccco2)n1 | inconclusive: 13.1 µM [inhibitor, partial curve]
CCOC(=O)N1CCN(C(=O)CSc2nc3c(cnn3-c3ccccc3)c(=O)[nH]2)CC1 | inconclusive: 8.28 µM [inhibitor, partial curve, poor fit]
O=C1CC(O)(c2ccccc2)C(c2ccccc2)=C1c1ccccc1 (configuration not stated) | active: 11.7 µM
CCOC(=O)C1CCCN(c2c(Nc3cccc(C)c3)c(=O)c2=O)C1 (configuration not stated) | active: 8.28 µM
O=C(NNC(=O)c1cc(Cl)ccc1[N+](=O)[O-])c1csc(N2CCOCC2)n1 | inactive
Cc1cccc(N2CCN(C(=O)C3CCN(c4ncnc5c4nc4n5CCCCC4)CC3)CC2)c1C | inconclusive: 1.47 µM [inhibitor, partial curve, poor fit]
COc1ccc(-c2nnc3ccc(SCC(=O)Nc4nc5ccc(C)cc5s4)nn23)cc1OC | inconclusive: 1.85 µM [inhibitor, full curve]
CC(C)Cn1c(N)c(C(=O)COC(=O)/C=C/c2ccccc2)c(=O)n(C)c1=O | active: 10.4 µM
COC(=O)c1[nH]c2ccc(F)cc2c1NS(=O)(=O)c1ccc(OC)cc1 | inactive
CCC/C=C/C=C/C(=O)OC1/C(=C/C(=O)OC)CC2CC(C(C)O)OC(=O)CC(O)CC3CC(OC(C)=O)C(C)(C)C(O)(CC4C/C(=C/C(=O)OC)CC(/C=C\C(C)(C)C1(O)O2)O4)O3 (configuration not stated) | active: 1.51 µM

Reference: PubChem BioAssay AID504834 (National Center for Advancing Translational Sciences (NCATS), 2011)
